# Measured values published in doi:10.64898/2025.12.11.693769.
# Biological target: DacA-FLAG (diadenylate cyclase DacA with C-terminal FLAG tag) (Streptococcus mutans)
# Test: affinity purification with mass spectrometry
row,Binder,binding
1,"SMU_502 (protein, UniProt Q8DVI6 1-566) MASKEKWTELFEKVIGRKPTPQEFLEGKKGFFDLKEIKKIAGVDKADDLQETSSDIKQAILGNSITAVKPDNESSKEETKSTDKPVSTEVDKSPKQLWVEAFEKTIGRQPTPEEFISGRNQDFDLAKISQLVEKESVSKTSNLAKAPFTKGKKILITLGLVCLLALVVGYIYGNQYFSREAVAQRYLKVANSNFDKALEFEVWSDTEKPIKKSELTYRNSKETRTVTMDKLTSDASQMKKVGNKFLIFPDWRVAIKPASAKISINTKGLELFINDKRVTKADSDSFSQTISRLYPGTYNFVAKGNISGQKVEVSSEEKLTNHSTINLNVKYLSFKVNSNLTDGDLYVGSRKIGTLKDGKYNVTKLAVTDTSKIYVQKSFSGKATLKSEVQSIEDVYDGDTISLDAKGVLDRDTADSLITQAYYKLDSYASSHTTPDDLDDIFTSGNHNNFYLDVKNTIDTNTTNAKNRSADSINFSDVDVTKVTQTSPTTYAVEFTVVYDFYYSYSSEHKSSGSITQKLSWSALVEYVGDNKKNSSDSYSYNSYEDYRITSDNGKSSVLSTKNTVD",binds
2,"FtsK (protein, UniProt Q8DSX7 1-787) MAKTKNKRKGRKTRRPTKAELEKQRAIKRMVFALFMAFVLFFAIFKLGRVGVTVYNIIRLMVGSLAYPFIFAALIYLFATKWLKKHDGLVGGFVITMLGMLLEWQAYLFSLATMKDQSVIKGTLVIVFSDLSKFRVANFAGGGFLGALLYMPVAFLFSNIGSFLIGGLFLLLGLFLMSPWDVYDVMNFFKDSYAKWQVKRQENREKRFAQKEEARLLAQQAVQEAQESATFDHGLNAAIDLETGEVLDQAQTIDLDDFDGQVHKEPEIIGYQSDPEGEALEAEVPAAEQTSQLPKEEDMSDESLEVDFTPKTTLHYKLPGIDLFAKDKPKNQSKEKRLVRDNIKILEETFTSFGIKANVERAEIGPSVTKYEVKPAVGVRVNRISNLADDLALALAAQDVRIEAPIPGKSLVGIEVPNSEVATVTFRELWEQAKASPDKLLEVPLGKAVNGSVRSFDLAKMPHILVAGSTGSGKSVAVNGIIASILMKARPDQIKFMMIDPKMVELSVYNDIPHLLIPVVTNPRKASKALQKVVDEMENRYELFSHFGVRNIAGYNAKVEEFNRHSETKHIPLPLLVVIVDELADLMMVASKEVEDAIIRLGQKARAAGIHMILATQRPSVDVISGLIKANVPSRIAFAVSSGTDSRTILDENGAEKLLGRGDMLFKPIDENHPVRLQGSFISDDDVERIVSFIKEQAEADYDESFDPGEVSEDDNSNGNGGNSEGDPLFEDAKALVLETQKASASMLQRRLSVGFNRATRLMEELEEAGVIGPAEGTKPRKVLQSN",binds
3,"SMU_1412c (protein, UniProt Q8DTD8 1-842) MLELKHITKVYETAGIKRMALENVSVNFRANEFVAVLGQSGSGKTTLLNIIGGLDQYTTGDLLINGKSTKDFKDKDWDSYRNNTIGFVFQSYNLISHQTALANVELALTLSGVSKAERRKRALDALKRVGLEDEINKKPNQMSGGQMQRVAIARALVNNPDILLADEPTGALDSETSLQIMDLLKEIAQERLVIMVTHNPDLAEKYSNRIIKVLDGHIINDSNPYTDDEIRKATVDFKKTKMSFTTALSLSFNNLLTKKGRTLLTAFAGSIGIIGIALILSLSNGVQKYIAKTQEDTLVAYPLSIEKSSNKNFIGLLAANSNENKKSDKKKTNKKIGTNSILKNMISTQVVDNDLASFKTYIKKHQKKFAAVTKDIQYSYKITPRIYQSDTSKGVKAVNPNTLSKDLKDTSTSIQTVVSNLDIWQELSSNEKMLSSQYQVISGHLPKQYNEVVLMADENNKIDDYVLYSLGIKDAKQLNSKTIKKVKASSYHYKDLIGRTYKLVINSDLYQKEGNAWIDRSDNDAYMKQVINAAENIKIVGIVKPQEGTTSESSSAGVGYSHDLTDYLAKKIKSSTIAKEQLANKKLNVFTGQSFSSGNKTFSSDNLSVQQQASMASMSAEELADYVNRYNENANATYKDNLEKIGIIDNNNPETIHFYASSFKDKEALKDLISDYNKKVKKDKHKSRVIRYTDTVGLMMSSVTTMINAVTYILIGFVAISLIVSSIMIGIITYISVLERTKEIGVLRAMGASKRDVTRIFTAETIIEGAIAGVLGILITLLLNIAITLIVKNWLNINHISSLPIWSAIVLIAISIVLTVFAGILPSRVAAKKDPVEALRTE",binds
4,"OpuCa (protein, UniProt Q8DRU8 1-383) MDKDPVIEFKEVNKIYGDNVAVKHINLKIMAGEFVCLIGTSGSGKTTILRMINRMLKPSNGKIFIKGEEISDLNPVQLRRKIGYVIQNIGLMPHMTIYENITLVPKLLKWSEDKKKAKAKELIKLVELPEDFLDRYPYELSGGQQQRIGVVRALAADQDIILMDEPFGALDPITREGLQDLVKSLQEKTGKTIVLVTHDMDEALKLATKIVVMDKGHMVQQANPTELLRHPATAFVKKMIGEDRLIQARADVTPVKNIMLKDPVSIAPDKSLNDAISLMRQKRVDSLLVTDKDNKLLGMIDVESLNNNYKQNLVVADILNKISFYLEEDQLLRDTAHRILKRGLKYVPVIDKEWHLKGIVTRSSLVDMLYDIIWGNQDTEETL",binds
5,"PknB (protein, UniProt Q8DVK1 1-616) MIQIGKLFAGRYRILQSIGRGGMADVYLANDLILDNEEVAIKVLRTNYQTDQVAVTRFQREARAMAELNHPNIVAIRDIGEEDGQQFLAMEYVDGADLKKYIQDHAPLSNAEVIRIMKEVLSAMTLAHQKGIIHRDLKPQNVLLTKDGTAKVTDFGIAVAFAETSLTQTNSMLGSVHYLSPEQARGSKATVQSDIYAMGIMLFEMLTGHIPYDGDSAVTIALQHFQKPLPSIIAENKNVPQALENVVIKATAKRLTDRYHSTQEMLQDLRTSLQPNRSRERKLVFSDASDTKPLPKLEQAAANSLAAQSLKNKTSNQDKVDHKSKPKTKPQPKPKKKRHFLARFFKIFFILVAIGIAVLTYLVLTKPSTVSVPDVSGDKLSTAKMIIRKSGLKVGDVQKIEDDNVGAGKVVRTNPSAGSKKREGSSVDIFVASAKGFKMEDYTGQDYKDAIDNLTNNYGVSRDSIVLKEVSSDDYSGGTVIGQSPKPGKTYHPSSDKKITLKVVKVTMPNLKNSTYEEAVSTLTAMGISSSRIKAYDASDYSSEISSPSSSSLVVGQSPYYGNTVSLSSNDDIILYVSTSGGSHSGSSSSESSNSEGTTSSEASTDSSSSATTTSH",binds
6,"EzrA (protein, UniProt Q8DTQ3 1-574) MSSGIVLLIVAIVLVVIIAYLIAIIIRKRNDSLITKLEERKQNLFDLPVNDEIEEVKKLHLIGQSQTTFREWNQKWVDLSLNSFSDIENHIFEAENLNDTFNFIRAHSQINNIESQLNLAEEDIKAIREALAVLKEQEEKNSARVLHALEMYESLQASIEEGDSNFGITMPEIEKQLKNIEAEFSQFVTLNSSGDPVEASEILDRAEEHTIALGQMTEKIPAIVAKLEDDFPDQLDDLESGYRRLLEENYHFPEKNIEERFQEVREAIGNNSNELVSLDLDKAESENEAIQEKIDSLYDIFEREIRAHKNIVKSKKIIPAYLEHAKKNNEQLEAEIERLNHRYILNEKEELNVRDFNEEIASVEKDVLPIIENFDTQEKPFSVLEDKFDRAIKKLDLVEEGQLDVFNSLKNIENVEKTARQKLDSYINRLHAIKRFMEKRNLPGIPQDFLSVFFTTSAQLEALMDELNRARIHIETVNRMTEAATAAVENLEETAYRVVQNATLTEQLLQYSNRYRSFEPSVQESFDIALKLFETDYDYQGSFDEISYSLETVEPGVTDRFVSSYEKTRETIRF",binds
7,"MltG (protein, UniProt Q8DSP6 1-614) MKKAKQSRKNRDISQVKKGNVAKDHQKYSDSAVQKQDKEETRTVMPIPEGNITDKDVDNVLANLDEIFAPGQLNHSDQINEKENSQQITGKQSSSLKTGSATQETETFQSKESLTLPNKKTSENKVSDVLEVKVKKTNNWVDDGEAENWQLPDLTEKLTNNNDEETKELPLSSLAEKTNSESEMKHSVKETEELLKQEKKLSSKYDKTKSQTKASSKEKDVTANLNQKRQQHYKKTNRLAKKISTVLITFILILLLGTGLFGYYYVSSAIKPLDAHSTKYIQVEIPSGSGNRMIGKILEKAGVIKNATVFNFYTKFRNYSNLQSGYYNLQKSMSLDDIAKTLKNGGTTTPQAPVLGKVVIPEGYTIKQISKAITSNANTKKKTDKTPFTAKEFLKTVKDKAFIEKMVKKYPRLLGSLPDASKVTYQLEGYLFPATYSYGEKTSIEDLIDNMLAAMDTNMQSYYDTIESQGKTVNDILTLASLVEKEGATDDDRKKIAGIFYNRINQDMPLQSNIAILYAMGKLGEKTSLKEDATINTKIDSPYNVYTNKGLMPGAVDNPSLSAIKAAVEPESTDDLYFVADVTTGEVHYAKTYEEHSANVEKYVNKKVASSSDS",binds
8,"DivIVA (protein, UniProt Q8DVD4 1-271) MAITALEIKDKTFGTKMFGYNTQEVEEFLDIVVDDYEELVRTNREKDNRIKELEDKLGYFDEMKESLSQSVILAQETAEKVKLSANTESTNILNKATYESQQLVDAAKSKANQILRDATDEAKRIAVETEELKRQSRVFHQHLLSVVEGQLTLANSPEWTELLQPTAVYLQNSDAAFKEVVEQVLGEHVPDAADTEPIEVTRQFTPEEMEELHRRVSESNKELEETKAGQSTVDDQQPLIIEAADETKVNESADEQPNLNETQTFKLNINE",binds
9,"KhpB (protein, UniProt Q8DVX2 1-322) MVLFTGKTVEEAIESGLKQMGISRMKAHIRVISREKKGFLGFGRKLARVEIEGINEKTAHKADQKAVRGVPDSINKQNAPVSSSAEDTVALNHLSKTIKKLEKEDGQPLDKEIKEQVLEHKISAQEMLEQNALTTKTSAATASSEAFNQKGKQTFEDFVADAFDEVDNGADIAVASKEVSQYIQKIIYEMDLETSIETSHNRRQINLQIETPEAGRVIGYHGKVLKSLQLLAQNFLHDHYSKHFSVTLNVHDYMEHRTKILIDFAHKIAKRVLDSGKAYQMDPMSNSERKVIHKTITGIEGVESYSEGNDPNRYVVIASKGN",binds
10,"FtsA (protein, UniProt Q8DVE0 1-453) MARDGFFTGLDIGTSSIKVLVAEFINGSMNVIGVSNVKSSGVKDGIIIDIDTAAEAIKSAIKEAEEKAGMSISKVNVGLPANLLQIEPTQGMIPVPSESKEIKDEDVDSVVRSALTKSITPEREVISLIPEEFIVDGFQGIRDPRGMMGIRLEMRGLIYTGPSTILHNLRKTVERAGIEVENIIISPLALTKSVLNEGEREFGATVIDMGGGQTTVASMRAQELQFTNTYAEGGDYVTKDISKVLKTSHQVAEALKFNFGEANVAEASSTETVQVEVVGERNPVEITERYLSEIISARVRHLLDRIKQDLERGRLLDLPGGIVIVGGAAIMPGVVEIAQEIFGFNVKLHVPNQVGIRNPMFANIISIVEYVGTLTEVDILAQGAVSGDEKLRRKPIDIKPSGVAPKTRSFAQPQESTTLESQLEQLPPQQKEANEPKQKVGDRLRGIFGSMFD",binds

# No constants are given. Whether binding was seen depends on the method and setting. In cells and extracts the contact can be indirect. These calls come from enrichment with a bait or labelling near it, and not all partners need be listed.
